Taken from: PubChem BioAssay AID1053208 (Peter MacCallum Cancer Centre, 2014)

Assay: 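Genes whose silencing cuts survival of bone tumour cells only with doxorubicin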 (primary screen)
Cells: mouse osteosarcoma cells, early-passage culture from an engineered mouse model of fibroblastic bone tumour
Knock-down reagent: siRNA pool against mouse genes, 40 nM
Time to read-out: about 120 h (48 h before drug, then 72 h with drug)
Conditions: doxorubicin 100 nM for 72 h, roughly 30-40% inhibitory dose
Read-out: 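Luminescent ATP signal taken as viability with or without 100 nM doxorubicin for 72 h; mean of two wells set against non-targeting siRNA and turned into robust z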
Direction: viability z-score with doxorubicin: higher = more viable cells under doxorubicin; viability z-score without drug: higher = more viable cells with knock-down alone
Active means: 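Called active if knock-down leaves viability unchanged without drug (z within -2 to 2) but lowers it with doxorubicin (z at or under -2)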
The whole screen tested about 17,000 reagents; this is a part drawn at random. In the full data, 788 (4.7%) are marked active. 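Calls rest on z-score classes alone; an extra cut-off of viability at most 70% of control was not applied to them.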 Not all columns of the deposit are shown.

Lrwd1 (leucine-rich repeats and WD repeat domain containing 1)
- combined z-score class: no change with or without drug
- viability z-score with doxorubicin: 1.12
- viability z-score without drug: 1.85
- Outcome: inactive

Cyth2 (cytohesin 2)
- combined z-score class: no change with or without drug
- viability z-score with doxorubicin: -0.45
- viability z-score without drug: -0.17
- Outcome: inactive

Zmiz1 (zinc finger, MIZ-type containing 1)
- combined z-score class: high cell count with doxorubicin only
- viability z-score with doxorubicin: 2.02
- viability z-score without drug: -0.51
- Outcome: inactive

Dand5 (DAN domain family member 5, BMP antagonist)
- combined z-score class: no change with or without drug
- viability z-score with doxorubicin: -0.22
- viability z-score without drug: 0.51
- Outcome: inactive

Nptn (neuroplastin)
- combined z-score class: high cell count without drug only
- viability z-score with doxorubicin: 1.35
- viability z-score without drug: 2.19
- Outcome: inactive

Krt81 (keratin 81)
- combined z-score class: no change with or without drug
- viability z-score with doxorubicin: 0.34
- viability z-score without drug: 1.85
- Outcome: inactive

Trpc7
- combined z-score class: no change with or without drug
- viability z-score with doxorubicin: -1.35
- viability z-score without drug: -1.18
- Outcome: inactive

Ercc6
- combined z-score class: no change with or without drug
- viability z-score with doxorubicin: -0.22
- viability z-score without drug: 1.52
- Outcome: inactive

Lrrc56 (leucine rich repeat containing 56)
- combined z-score class: no change with or without drug
- viability z-score with doxorubicin: 0
- viability z-score without drug: 0.67
- Outcome: inactive

Rhob (ras homolog family member B)
- combined z-score class: no change with or without drug
- viability z-score with doxorubicin: 1.12
- viability z-score without drug: 1.18
- Outcome: inactive

Zfp82 (zinc finger protein 82)
- combined z-score class: no change with or without drug
- viability z-score with doxorubicin: 0.45
- viability z-score without drug: 1.85
- Outcome: inactive

DSG1A
- combined z-score class: no change with or without drug
- viability z-score with doxorubicin: 0.67
- viability z-score without drug: 1.85
- Outcome: inactive

Awat2 (acyl-CoA wax alcohol acyltransferase 2)
- combined z-score class: no change with or without drug
- viability z-score with doxorubicin: -0.22
- viability z-score without drug: 0.51
- Outcome: inactive

Prune2 (prune homolog 2)
- combined z-score class: no change with or without drug
- viability z-score with doxorubicin: 0.34
- viability z-score without drug: 0.51
- Outcome: inactive

Speer4a1 (spermatogenesis associated glutamate (E)-rich protein 4A1)
- combined z-score class: low cell count with and without drug
- viability z-score with doxorubicin: -2.47
- viability z-score without drug: -2.7
- Outcome: inactive

Mybpc2 (myosin binding protein C, fast-type)
- combined z-score class: no change with or without drug
- viability z-score with doxorubicin: -0.9
- viability z-score without drug: -0.51
- Outcome: inactive

Calm1 (calmodulin 1)
- combined z-score class: low cell count with and without drug
- viability z-score with doxorubicin: -2.25
- viability z-score without drug: -2.19
- Outcome: inactive

Mospd1 (motile sperm domain containing 1)
- combined z-score class: low cell count without drug only
- viability z-score with doxorubicin: -1.57
- viability z-score without drug: -2.19
- Outcome: inactive

Vmn1r53 (vomeronasal 1 receptor 53)
- combined z-score class: no change with or without drug
- viability z-score with doxorubicin: 0
- viability z-score without drug: 0.51
- Outcome: inactive

Ptges2 (prostaglandin E synthase 2)
- combined z-score class: no change with or without drug
- viability z-score with doxorubicin: 0.45
- viability z-score without drug: 0.34
- Outcome: inactive

Sack1f (scaffolding CK1 anchoring protein F)
- combined z-score class: no change with or without drug
- viability z-score with doxorubicin: -0.9
- viability z-score without drug: -0.34
- Outcome: inactive

Ascl3 (achaete-scute family bHLH transcription factor 3)
- combined z-score class: no change with or without drug
- viability z-score with doxorubicin: 0
- viability z-score without drug: 0.67
- Outcome: inactive

Spin4 (spindlin family, member 4)
- combined z-score class: no change with or without drug
- viability z-score with doxorubicin: -0.79
- viability z-score without drug: 0.34
- Outcome: inactive

Smpd2 (sphingomyelin phosphodiesterase 2, neutral)
- combined z-score class: no change with or without drug
- viability z-score with doxorubicin: 1.35
- viability z-score without drug: 0.34
- Outcome: inactive

Chst11 (carbohydrate sulfotransferase 11)
- combined z-score class: no change with or without drug
- viability z-score with doxorubicin: -1.35
- viability z-score without drug: 0.84
- Outcome: inactive

Prps2 (phosphoribosyl pyrophosphate synthetase 2)
- combined z-score class: no change with or without drug
- viability z-score with doxorubicin: 1.01
- viability z-score without drug: -1.52
- Outcome: inactive

Ppm1n (protein phosphatase, Mg2+/Mn2+ dependent, 1N (putative))
- combined z-score class: low cell count with doxorubicin only
- viability z-score with doxorubicin: -3.15
- viability z-score without drug: -1.18
- Outcome: active

Mapk8ip2 (mitogen-activated protein kinase 8 interacting protein 2)
- combined z-score class: high cell count without drug only
- viability z-score with doxorubicin: 1.69
- viability z-score without drug: 3.88
- Outcome: inactive

Copied from the list:
Under “viability z-score with doxorubicin”, Dand5 (DAN domain family member 5, BMP antagonist) reads -0.22
Value of Sack1f (scaffolding CK1 anchoring protein F) under “Outcome”: inactive
Entry for Ascl3 (achaete-scute family bHLH transcription factor 3) in “Outcome”: inactive
